These are yes or no findings as the source states them, for the method shown. Binding seen in cells or lysates may run through a third protein. Binding calls can cover weak binding; strength is not graded here.

The source of these data is paper PMC6069705.

The target in the assay is human tau P301S (PS19 transgene) (human). Put plainly: co-IP; tau immunoprecipitated from 1 mg brain lysate of 6 month old PS19 mice (IP lysis buffer, 1% NP-40, 0.15 M NaCl, pH 7.4, with RNase inhibitor) with 10 ug Tau13 on Protein G Dynabeads, overnight at 4 C; normal mouse IgG as control; immunoblot.

B1: HNRNPA0 (protein, UniProt Q9CX86 1-305)
chain: MENSQLCKLFIGGLNVQTSESGLRGHFEAFGTLTDCVVVVNPQTKRSRCFGFVTYSNVEEADAAMAASPHAVDGNTVELKRAVSREDSARPGAHAKVKKLFVGGLKGDVAEGDLIEHFSQFGAVEKAEIIADKQSGKKRGFGFVYFQSHDAADKAAVVKFHPIQGHRVEVKKAVPKEDIHAGGGGARAARGGRGGGRGRGGGGGGGGRDQNGLAKGGGGGGGGYNSYGGYGGYGAYGGGGGGGGSYGGSDYGNGFGGFGSYSQHQSSYGPMKSGGGGGGGGSWGGRSNSGPYRGGYGGGYGGGSF
Consider B1, for which the binding entry is recorded as “binds”.
